Reference: US8163756B2 (priority 2004, dated 2012)
For at least one compound, name, drawing or mass did not settle the structure.

Sequences of proteins named here, by UniProt entry; tags and fusion partners are left off. A line that says so, or that is headed by a name, gives the form on record, which may keep a tag or linker.
UniProt P15056, with tags, fused parts or gaps V600E: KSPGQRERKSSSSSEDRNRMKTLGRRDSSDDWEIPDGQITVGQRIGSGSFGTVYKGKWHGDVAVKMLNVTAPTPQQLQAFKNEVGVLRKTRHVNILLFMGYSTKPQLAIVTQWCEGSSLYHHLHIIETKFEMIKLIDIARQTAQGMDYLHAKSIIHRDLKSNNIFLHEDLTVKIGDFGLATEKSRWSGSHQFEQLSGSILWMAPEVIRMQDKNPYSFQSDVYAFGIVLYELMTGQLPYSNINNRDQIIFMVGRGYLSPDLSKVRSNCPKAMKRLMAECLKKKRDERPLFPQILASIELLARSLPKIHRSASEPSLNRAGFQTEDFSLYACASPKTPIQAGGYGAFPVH

Target: B-Raf(V599E) kinase (Homo sapiens, UniProt P15056, V600E)
Assay: B-Raf(V599E) kinase assay B1 (construct 1, MEK1 substrate, coupled spectrophotometric)
Format: biochemical
Conditions: Method B1
Description: The test compounds were incubated with the reaction mixtureat 30° C. for 2 h. […] The reaction rate was calculated using the […] time frame. […] IC50 values were calculated from a series of percent inhibition values determined at a range of inhibitor concentrations using software routines as implemented in the GraphPad Prism software package.

SMILES: CCOC(=O)Cc1ccc(-n2nc(C3CCCC3)cc2NC(=O)Nc2cccc(Cl)c2Cl)cc1 [Example 494, ethyl 2-(4-(3-cyclopentyl-5-(3-(2,3-dichlorophenyl)ureido)-1H-pyrazol-1-yl)phenyl)acetate]
- IC50: 161 nM
